Among the data in PMC10929182 are binding values, retold here.

Amino acid sequences for entries named in this document (tags omitted).
UniProt P09874: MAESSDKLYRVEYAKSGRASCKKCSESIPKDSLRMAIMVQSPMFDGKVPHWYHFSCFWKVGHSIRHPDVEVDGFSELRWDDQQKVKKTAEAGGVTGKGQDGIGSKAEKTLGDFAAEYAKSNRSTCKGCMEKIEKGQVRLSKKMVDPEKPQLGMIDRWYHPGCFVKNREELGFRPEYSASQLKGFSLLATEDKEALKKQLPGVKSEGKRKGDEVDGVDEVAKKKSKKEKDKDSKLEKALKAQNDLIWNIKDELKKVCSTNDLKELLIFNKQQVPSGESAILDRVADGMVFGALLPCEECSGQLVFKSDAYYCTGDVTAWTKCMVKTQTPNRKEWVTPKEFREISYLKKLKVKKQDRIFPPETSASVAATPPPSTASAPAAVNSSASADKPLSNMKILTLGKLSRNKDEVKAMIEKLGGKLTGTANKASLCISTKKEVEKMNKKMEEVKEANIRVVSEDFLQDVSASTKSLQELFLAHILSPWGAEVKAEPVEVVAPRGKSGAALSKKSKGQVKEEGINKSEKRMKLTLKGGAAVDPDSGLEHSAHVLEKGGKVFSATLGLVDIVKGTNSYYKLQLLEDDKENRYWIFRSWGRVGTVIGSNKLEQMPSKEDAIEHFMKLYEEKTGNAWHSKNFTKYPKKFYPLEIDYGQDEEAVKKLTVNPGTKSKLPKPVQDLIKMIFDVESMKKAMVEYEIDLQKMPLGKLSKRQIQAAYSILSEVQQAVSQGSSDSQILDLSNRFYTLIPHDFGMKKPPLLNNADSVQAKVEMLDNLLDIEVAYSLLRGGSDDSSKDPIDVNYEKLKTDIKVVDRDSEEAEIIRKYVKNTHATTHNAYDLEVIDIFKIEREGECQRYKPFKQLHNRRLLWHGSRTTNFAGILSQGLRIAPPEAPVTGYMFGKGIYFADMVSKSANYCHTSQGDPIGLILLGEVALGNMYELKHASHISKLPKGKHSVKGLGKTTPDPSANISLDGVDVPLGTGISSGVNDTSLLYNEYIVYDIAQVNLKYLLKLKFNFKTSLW
UniProt P27008: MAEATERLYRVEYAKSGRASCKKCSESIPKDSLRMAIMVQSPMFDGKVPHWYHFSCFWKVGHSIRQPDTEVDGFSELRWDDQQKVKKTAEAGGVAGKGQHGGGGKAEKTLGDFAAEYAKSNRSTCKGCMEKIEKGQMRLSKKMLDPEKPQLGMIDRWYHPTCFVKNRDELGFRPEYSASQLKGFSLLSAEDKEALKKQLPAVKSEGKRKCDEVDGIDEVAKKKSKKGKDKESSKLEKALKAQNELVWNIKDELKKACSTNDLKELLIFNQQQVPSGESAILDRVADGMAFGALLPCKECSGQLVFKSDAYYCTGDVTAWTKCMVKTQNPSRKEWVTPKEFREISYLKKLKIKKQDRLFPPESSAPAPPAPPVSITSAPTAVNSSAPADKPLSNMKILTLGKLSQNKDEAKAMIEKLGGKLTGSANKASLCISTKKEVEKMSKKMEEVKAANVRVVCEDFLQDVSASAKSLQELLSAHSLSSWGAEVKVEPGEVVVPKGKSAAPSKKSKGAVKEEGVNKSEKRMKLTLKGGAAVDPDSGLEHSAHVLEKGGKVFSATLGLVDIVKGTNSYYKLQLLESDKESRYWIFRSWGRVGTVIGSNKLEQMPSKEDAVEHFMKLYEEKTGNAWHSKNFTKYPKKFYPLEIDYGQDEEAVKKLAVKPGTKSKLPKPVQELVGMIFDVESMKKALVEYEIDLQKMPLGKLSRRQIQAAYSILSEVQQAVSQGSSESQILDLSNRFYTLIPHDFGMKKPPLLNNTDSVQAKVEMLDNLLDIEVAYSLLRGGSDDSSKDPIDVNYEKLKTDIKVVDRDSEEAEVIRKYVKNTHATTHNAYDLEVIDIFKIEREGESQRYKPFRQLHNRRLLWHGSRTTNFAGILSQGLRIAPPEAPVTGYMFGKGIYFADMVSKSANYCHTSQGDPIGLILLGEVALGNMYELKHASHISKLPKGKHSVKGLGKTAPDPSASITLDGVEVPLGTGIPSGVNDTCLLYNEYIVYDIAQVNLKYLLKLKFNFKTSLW
UniProt P34058: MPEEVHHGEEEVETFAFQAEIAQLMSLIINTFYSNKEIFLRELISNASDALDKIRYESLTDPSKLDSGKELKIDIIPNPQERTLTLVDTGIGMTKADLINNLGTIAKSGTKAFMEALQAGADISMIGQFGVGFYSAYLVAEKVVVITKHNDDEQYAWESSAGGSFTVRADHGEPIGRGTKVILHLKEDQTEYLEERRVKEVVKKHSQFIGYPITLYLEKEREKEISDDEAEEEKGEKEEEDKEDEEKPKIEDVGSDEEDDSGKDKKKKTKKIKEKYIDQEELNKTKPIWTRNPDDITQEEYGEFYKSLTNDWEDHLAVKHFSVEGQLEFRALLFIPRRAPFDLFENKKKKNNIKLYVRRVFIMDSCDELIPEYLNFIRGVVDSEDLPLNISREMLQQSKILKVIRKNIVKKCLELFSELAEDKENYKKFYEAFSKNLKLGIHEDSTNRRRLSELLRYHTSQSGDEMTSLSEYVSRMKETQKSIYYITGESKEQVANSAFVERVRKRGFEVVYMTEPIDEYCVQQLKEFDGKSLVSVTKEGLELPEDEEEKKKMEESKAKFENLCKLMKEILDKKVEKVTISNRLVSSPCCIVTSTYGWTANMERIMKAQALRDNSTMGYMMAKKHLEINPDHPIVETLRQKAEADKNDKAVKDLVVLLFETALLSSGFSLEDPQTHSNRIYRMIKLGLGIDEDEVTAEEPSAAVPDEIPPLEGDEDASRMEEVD
UniProt P08238: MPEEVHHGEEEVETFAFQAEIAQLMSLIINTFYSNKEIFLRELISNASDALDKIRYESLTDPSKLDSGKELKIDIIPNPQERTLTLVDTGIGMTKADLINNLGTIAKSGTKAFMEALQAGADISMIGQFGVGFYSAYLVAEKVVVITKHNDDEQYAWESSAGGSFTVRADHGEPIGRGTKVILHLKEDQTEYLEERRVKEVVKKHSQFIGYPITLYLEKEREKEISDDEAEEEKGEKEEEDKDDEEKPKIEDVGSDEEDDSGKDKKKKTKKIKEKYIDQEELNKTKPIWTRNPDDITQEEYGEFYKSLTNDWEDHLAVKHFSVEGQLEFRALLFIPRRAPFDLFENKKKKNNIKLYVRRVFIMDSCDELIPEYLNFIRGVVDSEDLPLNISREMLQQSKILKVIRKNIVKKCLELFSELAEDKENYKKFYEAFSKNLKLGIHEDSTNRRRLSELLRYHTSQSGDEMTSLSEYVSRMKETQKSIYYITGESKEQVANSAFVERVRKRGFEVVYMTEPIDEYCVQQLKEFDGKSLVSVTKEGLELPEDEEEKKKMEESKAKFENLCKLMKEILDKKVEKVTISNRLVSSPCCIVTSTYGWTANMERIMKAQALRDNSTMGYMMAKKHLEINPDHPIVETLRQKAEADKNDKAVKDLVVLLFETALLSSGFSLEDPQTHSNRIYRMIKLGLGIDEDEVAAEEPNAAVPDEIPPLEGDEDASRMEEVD

Read-outs that look alike come from different tables or passages of the source. These are yes or no findings as the source states them, for the method shown. In cells and extracts the contact can be indirect. Some binding calls cover weakened binding; strength is not graded here.

One assay addresses PARP1-VC155 (UniProt P09874). As to the kind of experiment: split reporter; BiFC in HEK293T cells transfected with PARP1-VC155 or HSP90-VN173 or empty vector; confocal microscopy 24-48 h after transfection.
The next assay has as its target PARP1-CFP (UniProt P09874). As to the kind of experiment: FRET or BRET; FRET in HEK293T cells transfected with PARP1-CFP, HSP90-YFP or empty vector; confocal microscopy 24-48 h after transfection. On the technique in general: Bioluminescence resonance energy transfer reports proximity on the nanometre scale.
Assay [1] has as its target Poly(ADP-Ribose) Polymerase 1 (PARP1), endogenous in neonatal rat cardiomyocytes (rat (endogenous in NRCMs)) (UniProt P27008). As to the kind of experiment: co-IP; NRCM lysates incubated with the antibody of interest or IgG overnight at 4 °C, Protein A/G magnetic beads 2-4 h at 4 °C, western blot; cells untreated, infected with Ad-Ctrl or Ad-PARP1, or transfected with si-Ctrl or si-PARP1. For orientation: A western blot detects proteins with antibodies after separation by electrophoresis.

In assay [2] the target is Heat Shock Protein 90 Alpha Family Class B Member 1 (HSP90AB1), endogenous in neonatal rat cardiomyocytes (rat (endogenous in NRCMs)) (UniProt P34058). Described as above.
Assay [3] shares this target. Described as above. This is another data set of the same source.
The target in assay [4] is T1, Cell Division Cycle 37 (CDC37), endogenous in neonatal rat cardiomyocytes (rat (endogenous in NRCMs)) (UniProt Q63692).
T1 sequence: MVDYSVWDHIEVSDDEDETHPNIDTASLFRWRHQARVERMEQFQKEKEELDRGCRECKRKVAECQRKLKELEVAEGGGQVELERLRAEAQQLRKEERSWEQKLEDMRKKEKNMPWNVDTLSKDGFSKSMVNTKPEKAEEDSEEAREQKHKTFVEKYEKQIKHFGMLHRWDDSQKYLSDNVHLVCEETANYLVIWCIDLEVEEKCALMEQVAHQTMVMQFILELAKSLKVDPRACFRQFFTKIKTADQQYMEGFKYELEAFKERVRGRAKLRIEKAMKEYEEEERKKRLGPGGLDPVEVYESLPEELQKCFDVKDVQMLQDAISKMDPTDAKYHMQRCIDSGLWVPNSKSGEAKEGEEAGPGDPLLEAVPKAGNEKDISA
The description is as above.

With HSP90-VN173 (from UniProt P08238 1-724), the binding entry in the assay with PARP1-VC155 was “binds”.

Regarding HSP90-YFP (from UniProt P08238 1-724), in the assay with PARP1-CFP, the binding entry is “binds”.

Consider “Heat Shock Protein 90 Alpha Family Class B Member 1 (HSP90AB1), endogenous in neonatal rat cardiomyocytes (from UniProt P34058 1-724)”, for which, in assay [1], the binding result is reported as “binds”.

In the case of “Poly(ADP-Ribose) Polymerase 1 (PARP1), endogenous in neonatal rat cardiomyocytes (from UniProt P27008 1-1014)”, the binding entry in assay [2] is “binds”.

B1: Cell Division Cycle 37 (CDC37), endogenous in neonatal rat cardiomyocytes (protein, UniProt Q63692 1-379)
chain: MVDYSVWDHIEVSDDEDETHPNIDTASLFRWRHQARVERMEQFQKEKEELDRGCRECKRKVAECQRKLKELEVAEGGGQVELERLRAEAQQLRKEERSWEQKLEDMRKKEKNMPWNVDTLSKDGFSKSMVNTKPEKAEEDSEEAREQKHKTFVEKYEKQIKHFGMLHRWDDSQKYLSDNVHLVCEETANYLVIWCIDLEVEEKCALMEQVAHQTMVMQFILELAKSLKVDPRACFRQFFTKIKTADQQYMEGFKYELEAFKERVRGRAKLRIEKAMKEYEEEERKKRLGPGGLDPVEVYESLPEELQKCFDVKDVQMLQDAISKMDPTDAKYHMQRCIDSGLWVPNSKSGEAKEGEEAGPGDPLLEAVPKAGNEKDISA
Consider B1, for which the binding result in assay [3] is “binds”.

B2: CDK4, endogenous in neonatal rat cardiomyocytes (protein, UniProt P35426 1-303)
chain: MATTRYEPVAEIGVGAYGTVYKARDPHSGHFVALKSVRVPNGGAAGGGLPVSTVREVALLRRLEAFEHPNVVRLMDVCATSRTDRDIKVTLVFEHIDQDLRTYLDKAPPPGLPVETIKDLMRQFLSGLDFLHANCIVHRDLKPENILVTSNGTVKLADFGLARIYSYQMALTPVVVTLWYRAPEVLLQSTYATPVDMWSVGCIFAEMFRRKPLFCGNSEADQLGKIFDLIGLPPEDDWPREVSLPRGAFSPRGPRPVQSVVPEMEESGAQLLLEMLTFNPLKRISAFRALQHSYLHKEESDPE
For B2, the binding entry in assay [3] and in assay [4] was “binds” in each case.
